Laboratory results taken from patent publication US20150098945A1 (Daiichi Sankyo, published 2015).
Results are given in words; binding and its absence hold for the method and conditions named. Some binding calls cover weakened binding; strength is not graded here. Where a sequence is shown, tags or fusion partners need not be part of it.

Chains of the proteins cited; added tags and fusions are not shown. Lines headed by an entry give the natural chain unless they say otherwise; changes in a name come on top.
UniProt Q8WZ75: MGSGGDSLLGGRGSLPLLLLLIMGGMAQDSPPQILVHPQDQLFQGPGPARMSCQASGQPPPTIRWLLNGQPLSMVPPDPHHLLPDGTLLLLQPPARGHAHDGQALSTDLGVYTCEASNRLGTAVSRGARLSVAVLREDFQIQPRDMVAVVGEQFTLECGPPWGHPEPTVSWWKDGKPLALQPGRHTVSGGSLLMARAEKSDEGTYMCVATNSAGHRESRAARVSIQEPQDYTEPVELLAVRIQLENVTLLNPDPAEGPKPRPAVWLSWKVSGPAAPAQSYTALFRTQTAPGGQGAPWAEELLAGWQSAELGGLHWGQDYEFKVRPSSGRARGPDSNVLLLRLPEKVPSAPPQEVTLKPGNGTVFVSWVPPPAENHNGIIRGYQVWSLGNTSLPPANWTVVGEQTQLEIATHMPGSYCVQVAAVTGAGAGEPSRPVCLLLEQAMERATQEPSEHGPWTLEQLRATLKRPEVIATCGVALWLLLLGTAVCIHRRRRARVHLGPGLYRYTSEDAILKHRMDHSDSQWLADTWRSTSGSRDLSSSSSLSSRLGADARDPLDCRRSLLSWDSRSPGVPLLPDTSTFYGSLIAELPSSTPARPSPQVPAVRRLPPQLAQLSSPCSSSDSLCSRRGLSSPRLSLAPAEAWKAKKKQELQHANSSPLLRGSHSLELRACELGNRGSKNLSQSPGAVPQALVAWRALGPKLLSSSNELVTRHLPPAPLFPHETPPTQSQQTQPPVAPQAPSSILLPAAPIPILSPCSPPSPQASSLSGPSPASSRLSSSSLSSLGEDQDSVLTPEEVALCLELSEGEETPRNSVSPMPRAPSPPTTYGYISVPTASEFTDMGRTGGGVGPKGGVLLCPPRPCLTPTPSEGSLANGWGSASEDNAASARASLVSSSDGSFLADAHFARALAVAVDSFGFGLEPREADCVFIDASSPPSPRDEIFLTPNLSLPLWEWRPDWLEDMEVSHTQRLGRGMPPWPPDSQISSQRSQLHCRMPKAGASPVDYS

Assays:
[1] = biological target: T1, N-terminal FLAG-tagged human ROBO4 extracellular region/domain deletion variant hROBO4-46 (human) (UniProt Q8WZ75); assay: flow cytometry on transfected HEK293 cells, 10 µg/mL
T1 sequence: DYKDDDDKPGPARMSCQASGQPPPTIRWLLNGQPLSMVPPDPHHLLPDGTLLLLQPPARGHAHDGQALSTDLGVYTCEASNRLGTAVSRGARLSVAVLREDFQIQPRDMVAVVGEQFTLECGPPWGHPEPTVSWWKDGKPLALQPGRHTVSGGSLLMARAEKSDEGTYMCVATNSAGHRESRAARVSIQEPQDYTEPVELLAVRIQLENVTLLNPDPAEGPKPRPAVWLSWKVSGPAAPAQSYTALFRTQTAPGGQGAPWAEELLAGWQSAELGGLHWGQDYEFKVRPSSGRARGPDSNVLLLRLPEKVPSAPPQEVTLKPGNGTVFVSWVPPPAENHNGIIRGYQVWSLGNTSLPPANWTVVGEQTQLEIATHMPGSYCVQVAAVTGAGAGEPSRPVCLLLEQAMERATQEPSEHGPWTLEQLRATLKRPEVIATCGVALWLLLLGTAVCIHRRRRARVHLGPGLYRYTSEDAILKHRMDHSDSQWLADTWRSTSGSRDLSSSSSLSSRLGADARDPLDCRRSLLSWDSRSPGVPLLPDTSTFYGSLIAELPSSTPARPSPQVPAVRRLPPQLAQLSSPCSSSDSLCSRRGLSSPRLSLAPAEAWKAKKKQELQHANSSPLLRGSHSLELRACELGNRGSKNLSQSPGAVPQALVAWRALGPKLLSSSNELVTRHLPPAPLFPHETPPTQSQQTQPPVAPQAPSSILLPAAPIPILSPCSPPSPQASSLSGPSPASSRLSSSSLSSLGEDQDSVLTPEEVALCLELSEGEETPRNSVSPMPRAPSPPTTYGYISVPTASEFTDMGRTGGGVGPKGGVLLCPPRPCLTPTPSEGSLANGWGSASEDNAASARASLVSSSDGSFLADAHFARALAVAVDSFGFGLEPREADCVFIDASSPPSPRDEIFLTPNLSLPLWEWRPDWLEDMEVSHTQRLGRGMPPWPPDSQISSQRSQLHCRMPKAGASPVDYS

[2] = biological target: T1, N-terminal FLAG-tagged human ROBO4 extracellular region/domain deletion variant hROBO4-46 (human); assay: flow cytometry, HEK293 cells transfected with pCI-FLAG-hROBO4-46, antibody at 10 µg/mL, anti-mouse IgG FITC; control histogram IgG (Mouse IgG2a)

B1: anti-ROBO4 mouse monoclonal antibody MAb1 (antibody, mouse IgG1, V domains shown)
VH: EVQLVESGGGLVKPGGSLKLSCAASGFTFSTYAMSWVRQTPEKRLEWVATISNGGTYTYYPDSVKGRFTISRDNAENTLYLQMSSLRSEDTAMYFCARLIYYDYLDYWGHGTTLTVSS
VL: DAVMTQTPLSLPVSLGDQASISCRSSQSLENSNGNTYLNWYFQKPGQSPQLLIYRVSNRFSGVLDRFSGSGSGTDFTLKISRVEAEDFGVYFCLQVTHVPWTFGGGTKLEIKR
notes: Mouse IgG1 (gamma1), kappa light chain, purified from hybridoma supernatant; also called parent antibody MAb1
binding [1]: binds | binding [2]: binds
